Test results published in PubChem BioAssay AID1671190 (National Center for Advancing Translational Sciences (NCATS), 2021).
Screen size: about 580,000 compounds; about 6,100 (1.1%) were called active. This list was built around the results that the source calls inconclusive (neither active nor inactive); the mix of calls is not that of the screen. The call rests on the fitted dose curve; in most records, active means well fitted inhibition curve with a large enough effect; inconclusive means small, poorly fitted or top-dose-only effect, or another doubt; inactive means no such curve, though single readings can be large or run the other way. Potencies beside an inconclusive call are fits to weak or partial responses and may not hold up.

Amino acid sequences for entries named in this document (tags omitted). A change or cut given only in a name is not applied to a line headed by its entry.
UniProt P18054: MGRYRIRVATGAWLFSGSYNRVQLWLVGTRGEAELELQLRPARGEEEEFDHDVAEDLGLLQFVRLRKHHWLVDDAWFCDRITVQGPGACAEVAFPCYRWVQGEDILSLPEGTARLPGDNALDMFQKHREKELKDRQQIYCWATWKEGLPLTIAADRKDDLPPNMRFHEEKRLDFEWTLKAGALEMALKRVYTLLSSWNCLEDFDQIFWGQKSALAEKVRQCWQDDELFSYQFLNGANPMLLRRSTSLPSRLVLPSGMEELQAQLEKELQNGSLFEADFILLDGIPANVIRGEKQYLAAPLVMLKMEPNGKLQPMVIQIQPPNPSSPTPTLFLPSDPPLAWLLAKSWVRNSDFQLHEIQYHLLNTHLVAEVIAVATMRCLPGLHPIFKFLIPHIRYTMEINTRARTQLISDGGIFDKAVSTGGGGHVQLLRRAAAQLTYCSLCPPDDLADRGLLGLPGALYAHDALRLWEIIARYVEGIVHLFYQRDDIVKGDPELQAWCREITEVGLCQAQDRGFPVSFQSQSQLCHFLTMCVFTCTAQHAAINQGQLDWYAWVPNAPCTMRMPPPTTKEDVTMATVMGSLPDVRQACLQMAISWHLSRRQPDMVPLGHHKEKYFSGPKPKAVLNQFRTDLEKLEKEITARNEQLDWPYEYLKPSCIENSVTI

target: Polyunsaturated fatty acid lipoxygenase ALOX12 (Homo sapiens) (UniProt P18054); experiment: Primary qHTS assay for inhibitors of human arachidonate 12S-lipoxygenase (ALOX12): Round 2; settings: purified 12hLO, xylenol orange hydroperoxide absorbance; series mostly up to 108 µM
How it was run: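 Hydroperoxide product was detected by ferrous iron/xylenol orange as the 573 to 405 nm absorbance ratio. Arachidonic acid at 40 uM (final) was turned over for 30 min at room temperature by 150 nM human 12hLO, pH 7.0 Hepes buffer, after 15 min compound preincubation.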
Potency means the concentration at half of the fitted maximal effect.

Row | SMILES | Potency
1 | CCCc1noc(CN2C(=O)NC(c3ccccc3OC)C3=C2COC3=O)n1 (configuration not stated) | inactive
2 | CN1C(=O)CS(=O)(=O)C12CCN(C(=O)c1ccc(F)cc1)CC2 | inconclusive: 31.6 µM [inhibitor, partial curve, poor fit]
3 | CC(CCN1CCC(C(O)(c2ccccc2)c2ccccc2)CC1)Oc1ccc(C#N)c(F)c1 (configuration not stated) | inconclusive: 31.6 µM [inhibitor, partial curve, poor fit]
4 | COC(=O)c1ccccc1NC(=O)NCc1nc(-c2ccc(C)cc2)oc1C | inactive
5 | CC(/C=N/n1c(-c2ccccc2)n[nH]c1=S)=C\c1ccco1 | inconclusive: 39.8 µM [inhibitor, partial curve, poor fit]
6 | CCc1ccc(C(=O)/C=C/Nc2ccc(S(=O)(=O)Nc3onc(C)c3C)cc2)cc1 | inconclusive: 14.1 µM [inhibitor, full curve, poor fit]
7 | CC1CCN(CCOc2ccc(Cl)c(Cl)c2)CC1 | inconclusive: 50.1 µM [inhibitor, partial curve, poor fit]
8 | O=C(COC(=O)c1cccc(S(=O)(=O)N2CCCC2)c1)Nc1ccc(Cl)cn1 | inactive
9 | O=C(c1cccc(Cl)c1)N1CCN(C(=O)c2nnn3c2COC(c2ccc(F)cc2)C3)CC1 (configuration not stated) | inactive
10 | CSc1nnc(-c2nn(C)c3c2CN(S(=O)(=O)c2ccccc2)CC3)n1C | inconclusive: 141 µM [inhibitor, partial curve, poor fit]
11 | COc1ccc(C2CC(c3ccccc3)=NN2c2ccc(Cl)c(C(=O)O)c2)cc1 (configuration not stated) | inconclusive: 31.6 µM [inhibitor, partial curve, poor fit]
12 | Cc1cc(OCn2ccc(C(=O)O)n2)ccc1Cl | inconclusive: 3.98 µM [inhibitor, full curve, poor fit]
13 | COc1ccc(CN2CCNC(=O)C2CC(=O)N(C)Cc2cc(C)no2)cc1OC (configuration not stated) | inconclusive: 31.6 µM [inhibitor, single point]
14 | O=C(/C=C/c1cccs1)N1CCN(c2ccc(F)cc2)CC1 | inconclusive: 100 µM [inhibitor, single point]
15 | CCc1ccc(C(=O)N2CCN(C(=O)c3nnn4c3COC(c3ccc(C)cc3)C4)CC2)cc1 (configuration not stated) | inactive
16 | COc1ccccc1NC(=O)C(C)n1cnc2c(oc3nc4c(cc32)CCCC4)c1=O (configuration not stated) | inactive
17 | COc1ccc(NC(=O)CN2C(=O)S/C(=C/c3cccn3-c3ccc(C(=O)O)cc3)C2=O)cc1 | inactive
18 | O=c1[nH]c(C2CCCN(Cc3ccccc3)C2)nc2ccc(F)cc12 (configuration not stated) | inconclusive: 35.5 µM [inhibitor, partial curve, poor fit]
19 | COC(=O)[C@@H]1Cc2c([nH]c3ccccc23)[C@H]2C[C@@H](NC3CC3)C[C@@H](c3ccc(F)cc3)N21 | inconclusive: 100 µM [inhibitor, partial curve]
20 | N#C/C(=C\c1ccc(O)c(O)c1)C(=O)c1ccc(O)c(O)c1 | inconclusive: 17.8 µM [inhibitor, full curve, poor fit]
21 | COc1ccc(NC(=O)Cc2csc(COc3cccc(C)c3)n2)cc1OC | inactive

Row | SMILES | Potency
22 | COc1ccc(C2=NOC(Cn3nc(-c4ccccc4)cc3C(=O)O)C2)cc1 (configuration not stated) | inconclusive: 5.62 µM [inhibitor, full curve, poor fit]
23 | FC(F)(F)c1ccccc1-c1ccc2ncnc(NC3CCNCC3)c2c1 | inconclusive: 39.8 µM [inhibitor, partial curve, poor fit]
24 | Nc1[nH]n2c(=O)cc(-c3ccccc3)nc2c1N=Nc1ccc(S(N)(=O)=O)cc1 | inactive
25 | CCOc1ccccc1Oc1coc2cc(OCC(=O)N3CCCCCC3)ccc2c1=O | inactive
26 | COc1ccc2c(c1)c1c(c(=O)n(-c3ccccc3)c(=O)n1CC(=O)Nc1ccc(F)cc1)n2C | inconclusive: 50.1 µM [inhibitor, partial curve, poor fit]
27 | CN(C)/C=C(/C(=O)c1ccc(Cl)cc1Cl)S(=O)(=O)c1ccccc1 | inconclusive: 35.5 µM [inhibitor, single point]
28 | O=C(CNC(=O)c1ccc(-c2ccccc2)cc1)Nc1cccc(CO)c1 | inconclusive: 112 µM [inhibitor, partial curve, poor fit]
29 | Cc1ccc(NC(=O)CN(C)S(=O)(=O)c2ccc3c(c2)CCC(=O)N3)c(C)c1 | inconclusive: 0.562 µM [inhibitor, full curve, poor fit]
30 | c1ccc(CNn2nnc3ccccc32)cc1 | inconclusive: 79.4 µM [inhibitor, partial curve, poor fit]
31 | Cc1ccc(CN2CCCn3nc(C(=O)NCc4ccccc4Cl)cc3C2=O)cc1 | inconclusive: 25.1 µM [inhibitor, partial curve, poor fit]
32 | O=C(O)Cn1ccc2cc(OCC3CCN(C(=O)Cc4ccccc4)CC3)cnc21 | inconclusive: 100 µM [inhibitor, partial curve, poor fit]
33 | Cn1nnnc1SCC(=O)Nc1ccc(Br)cc1Cl | inactive
34 | O=C(c1nn(Cc2ccccc2)c(=O)c2ccccc12)N1CCN(c2ccc([N+](=O)[O-])cc2)CC1 | inconclusive: 31.6 µM [inhibitor, single point]
35 | CC(C)n1cc(-c2cc(C(=O)N3CCC(C)(C)C3)c3ccc(F)cc3n2)cn1 | inactive
36 | COc1cccc(NC(=S)NCc2ccccn2)c1 | inconclusive: 44.7 µM [inhibitor, partial curve, poor fit]
37 | CCOC(=O)c1c(C)[nH]c(C)c1C(=O)CSc1nnc(N)s1 | inconclusive: 3.55 µM [inhibitor, full curve, poor fit]
38 | COc1ccc(S(=O)(=O)N(c2onc(C)c2Cl)S(=O)(=O)c2ccc(OC)cc2)cc1 | inconclusive: 35.5 µM [inhibitor, partial curve, poor fit]
39 | c1ccc(C2=Nn3c(nnc3-c3ccco3)SC2)cc1 | inconclusive: 39.8 µM [inhibitor, partial curve, poor fit]
40 | COc1ccc(OC)c(S(=O)(=O)Nc2ccc(-c3ccc(N4CCC(C)CC4)nn3)cc2)c1 | active: 8.91 µM
41 | O=C(Nc1nnc(Cc2ccccc2)s1)c1ccccc1 | inactive
42 | O=C(NCc1ccccc1)c1cn(C2CN(C(=O)Nc3ccc4c(c3)OCCO4)C2)nn1 | inconclusive: 50.1 µM [inhibitor, partial curve, poor fit]

Reformatted as a markdown table: 2 of the compounds above.

| Row | SMILES | Potency |
| --- | --- | --- |
| 28 | O=C(CNC(=O)c1ccc(-c2ccccc2)cc1)Nc1cccc(CO)c1 | inconclusive: 112 µM [inhibitor, partial curve, poor fit] |
| 29 | Cc1ccc(NC(=O)CN(C)S(=O)(=O)c2ccc3c(c2)CCC(=O)N3)c(C)c1 | inconclusive: 0.562 µM [inhibitor, full curve, poor fit] |

Next structures follow.

Row | SMILES | Potency
43 | CCCCC(=O)NC(=S)Nc1ccc(Cl)c(C(=O)O)c1 | inconclusive: 50.1 µM [inhibitor, partial curve, poor fit]
44 | C[N+]1(Cc2ccccc2)CCN(/C=C/C(=O)C(F)(F)F)CC1 | inconclusive: 22.4 µM [inhibitor, partial curve, poor fit]
45 | COc1ccc(C(=O)Nc2ccnn2C2CCN(C(=O)c3cc(C)on3)CC2)cc1 | inconclusive: 1.12 µM [inhibitor, full curve, poor fit]
46 | CCCN(C(=O)c1cc(-c2ccco2)nc2ccccc12)c1c(N)n(Cc2ccccc2)c(=O)[nH]c1=O | inconclusive: 39.8 µM [inhibitor, partial curve, poor fit]
47 | COc1ccccc1Cc1c(-c2cccc(Br)c2)nc2c(C)cc(Br)cn12 | inconclusive: 89.1 µM [inhibitor, single point]
48 | Cc1ccc2[nH]c(C(=O)OCC(=O)N(c3ccccc3)C(C)C)cc2c1 | inactive
49 | O=C(NCc1ccc(F)cc1)C(c1ccccc1)c1ccccc1 | inactive
50 | Cc1cc(C)c(S(=O)(=O)NC2CC(C)(C)NC(C)(C)C2)cc1C | inconclusive: 39.8 µM [inhibitor, partial curve, poor fit]
51 | Cc1cc2oc(=O)cc(CN(C)Cc3ccc(OC(F)F)cc3)c2cc1Cl | inconclusive: 5.62 µM [inhibitor, full curve, poor fit]
52 | Cn1c(CBr)c(C(=O)c2ccc([N+](=O)[O-])cc2)c(=O)n(C)c1=O | inconclusive: 7.94 µM [inhibitor, partial curve, poor fit]
53 | CN(C)CCOC(=O)CCc1cc(C(C)(C)C)c(O)c(C(C)(C)C)c1 | inconclusive: 14.1 µM [inhibitor, full curve, poor fit]
54 | CCOC(=O)c1cc(NC(=O)c2cc(Br)cc(C)c2OC)ccc1N1CCOCC1 | inconclusive: 0.316 µM [inhibitor, full curve, poor fit]
55 | COc1cccc(NC(=O)CN(Cc2ccccc2)S(=O)(=O)c2ccc3nc(C)sc3c2)c1 | inactive
56 | O=C1/C(=C/c2cccc([N+](=O)[O-])c2)CCOc2ccc(F)cc21 | inactive
57 | CCOc1ccc(C(=O)Nc2ccc3nc(NC(C)=O)sc3c2)cc1OCC | inconclusive: 22.4 µM [inhibitor, partial curve, poor fit]
58 | COc1ccc(-c2nc3cnc(OCc4ccccc4)nc3n(CCC#N)c2=O)cc1 | inconclusive: 89.1 µM [inhibitor, single point]
59 | CN(C)c1ccc(-c2nnc(-c3ccc(S(=O)(=O)C(F)F)cc3)o2)cc1 | inconclusive: 100 µM [inhibitor, single point]
60 | CCc1ccc(NS(=O)(=O)c2cc(-c3ccno3)oc2C)cc1 | inconclusive: 63.1 µM [inhibitor, partial curve, poor fit]
61 | COc1ccc2ccccc2c1/C=N/Nc1ccc(Cl)c(C(=O)O)c1 | inconclusive: 39.8 µM [inhibitor, partial curve, poor fit]
62 | CC(Cl)C(=O)c1ccc(C(C)(C)C)cc1 (configuration not stated) | inconclusive: 39.8 µM [inhibitor, partial curve, poor fit]

Arranged by formula weight (largest number first): part of the list above.
Row | SMILES | Potency
52 | Cn1c(CBr)c(C(=O)c2ccc([N+](=O)[O-])cc2)c(=O)n(C)c1=O | inconclusive: 7.94 µM [inhibitor, partial curve, poor fit]
61 | COc1ccc2ccccc2c1/C=N/Nc1ccc(Cl)c(C(=O)O)c1 | inconclusive: 39.8 µM [inhibitor, partial curve, poor fit]
12 | Cc1cc(OCn2ccc(C(=O)O)n2)ccc1Cl | inconclusive: 3.98 µM [inhibitor, full curve, poor fit]
